We go through ten molecules from PMC10924461, “Structure and ligand binding in the putative anti-microbial peptide transporter protein, YejA” (Microbiology, 2024).

The target in this assay is T1, YejA, periplasmic solute-binding protein of the YejABEF ABC transporter from E. coli (E. coli K12) (UniProt P33913).
T1 sequence: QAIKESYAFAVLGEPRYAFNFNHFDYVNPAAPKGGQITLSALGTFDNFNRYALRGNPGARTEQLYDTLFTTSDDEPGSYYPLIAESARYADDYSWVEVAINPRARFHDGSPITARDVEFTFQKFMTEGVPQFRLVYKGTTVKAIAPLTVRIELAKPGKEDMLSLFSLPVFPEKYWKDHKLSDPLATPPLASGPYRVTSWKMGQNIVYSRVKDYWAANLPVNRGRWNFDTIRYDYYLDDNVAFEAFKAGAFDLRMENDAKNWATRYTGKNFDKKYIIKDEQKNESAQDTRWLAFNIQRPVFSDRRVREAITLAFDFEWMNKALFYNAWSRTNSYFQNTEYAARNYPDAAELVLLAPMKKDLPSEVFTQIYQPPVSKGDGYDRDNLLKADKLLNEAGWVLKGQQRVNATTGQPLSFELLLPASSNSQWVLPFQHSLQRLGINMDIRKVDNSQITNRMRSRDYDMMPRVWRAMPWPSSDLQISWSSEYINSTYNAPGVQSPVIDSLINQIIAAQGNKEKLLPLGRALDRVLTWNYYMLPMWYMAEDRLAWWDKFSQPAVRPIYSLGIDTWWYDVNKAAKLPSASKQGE
Nature of the assay: affinity purification with mass spectrometry; peptides stripped from purified YejA preparations (TFA, C18 ZipTip) and identified by MALDI-MS/MS against the YejA sequence.

Results are given in words; binding and its absence hold for the method and conditions named. In cells and extracts the contact can be indirect. These calls come from enrichment with a bait or labelling near it, and not all partners need be listed.

B1: … (peptide)
peptide: VLGEPRYAFNFNH
On to B1, for which the binding entry is reported as “binds”.

B2: … (peptide)
peptide: FAVLGEPRYAFNFN
On to B2, for which the binding result was “binds”.

B3: … (peptide)
peptide: AVLGEPRYAFNFNH
Regarding B3, the binding result is “binds”.

B4: … (peptide)
peptide: AVLGEPRYAFNFNHFDY
With B4, the binding entry is “binds”.

B5: … (peptide)
peptide: VLGEPRYAFN
Turning to B5, the binding entry is given as “binds”.

B6: … (peptide)
peptide: VLGEPRYAFNFNHFDY
Regarding B6, the binding entry is “binds”.

B7: … (peptide)
peptide: VLGEPRYAFNFNHF
In the case of B7, the binding entry is reported as “binds”.

B8: … (peptide)
peptide: AFAVLGEPRYAFNFNHF
Take B8: the binding result is recorded as “binds”.

B9: … (peptide)
peptide: FAVLGEPRYAFNFNH
Regarding B9, the binding result is on record as “binds”.

B10: … (peptide)
peptide: AFAVLGEPRYAFNFNHFDY
Take B10: the binding result is “binds”.
